Data on 6 sequences can be found in patent US20120252718.

The chains behind the UniProt entries cited, without tags or fusion partners. Residues count along the entry.
UniProt P99999, 2-105: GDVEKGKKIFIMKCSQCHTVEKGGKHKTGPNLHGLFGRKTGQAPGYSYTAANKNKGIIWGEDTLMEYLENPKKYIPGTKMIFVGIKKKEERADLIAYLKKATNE

Construct, isoform or probe ends are uncertain for at least one entry. For some assays here: Where cells or extracts were used, other partners may take part.

Series [1] concerns the target cytochrome c (endogenous) (UniProt P99999). The experiment in a line: pull-down. Particulars: protein in cells, protein details: HeLa cells, formaldehyde cross-linked.
Series [2] concerns cytochrome c (recombinant, EMSA). Description: EMSA. Particulars: 0.5-12.5 uM protein, 20 mM KCl, 2.5 mM MgCl2, 30 C, purified recombinant protein, label: 32P (EMSA).

Consider “AGUAAGGUCAGCUAAAUAAGCUAUCGGGCCCAUACCCCGAAAAUGUUGGUUAUACCCUUCCCGUACUA [mitochondrial tRNAMet]”, for which the binding result in series [1] is “binds”.
On the same count and under the same terms, next, “AAGGGCUUAGCUUAAUUAAAGUGGCUGAUUUGCGUUCAGUUGAUGCAGAGUGGGGUUUUGCAGUCCUUA [mitochondrial tRNAAla]”: “binds”.
Turning to “GACCUCGUGGCGCAACGGUAGCGCGUCUGACUCCAGAUCAGAAGGUUGCGUGUUCAAAUCACGUCGGGGUCA [cytosolic tRNATrp]”, in series [1] (lesser extent than mitochondrial tRNAs, printed probe identical to U1 probe), the binding result is reported as “binds”.
Turning to “GGUUCCAUGGUGUAAUGGUAAGCACUCUGGACUCUGAAUCCAGCCAUCUGAGUUCGAGUCUCUGUGGAACCU [cytosolic tRNAGln(CTG)]”, the binding result in series [2] is reported as “binds”; in series [1] (lesser extent than mitochondrial tRNAs, label: 32P (EMSA)) it was “binds”.
For “GUUUAUGUAGCUUACCUCCUCAAAGCAAUACACUGAAAAUGUUUAGACGGGCUCACAUCACCCCAUAAACA [mitochondrial tRNAPhe]”, the binding result in series [2] (salmon sperm DNA, 0.5 M urea) is reported as “binds”; in series [1] (label: 32P (EMSA)), “binds”.
“UCCUUGUUACUAUAGUGGUGAGUAUCUCUGCCUGUCAUGCGUGAGAGAGGGGGUCGAUUCCCCGACGGGGAG [cytosolic tRNAAsp]”: the binding result in series [1] (lesser extent than mitochondrial tRNAs) was “binds”.
